These are yes or no findings as the source states them, for the method shown. In cells and extracts the contact can be indirect. Here binding means that the protein was enriched with, or labelled near, the bait; the list need not be complete.
Molecular target: Flag-PPARγ (peroxisome proliferator-activated receptor-γ), expressed by lentivirus in human preadipocytes (UniProt P37231)
Assay: affinity purification with mass spectrometry; human preadipocytes (adipose SVCs) transduced with lentivirus for Flag-PPARγ or Flag-EGFP, treated with rosiglitazone (1 µM) and insulin (70 nM) for 24 h; lysate (50 mM Tris pH 7.5, 150 mM NaCl, 1% NP-40, 0.25% deoxycholate) on anti-Flag M2 magnetic beads overnight at 4°C; wash with 250 mM NaCl; elution with Flag peptide; LC-tandem mass spectrometry

Protein sequences, listed by entry. Tags and fused reporters are not part of them.
UniProt P37231: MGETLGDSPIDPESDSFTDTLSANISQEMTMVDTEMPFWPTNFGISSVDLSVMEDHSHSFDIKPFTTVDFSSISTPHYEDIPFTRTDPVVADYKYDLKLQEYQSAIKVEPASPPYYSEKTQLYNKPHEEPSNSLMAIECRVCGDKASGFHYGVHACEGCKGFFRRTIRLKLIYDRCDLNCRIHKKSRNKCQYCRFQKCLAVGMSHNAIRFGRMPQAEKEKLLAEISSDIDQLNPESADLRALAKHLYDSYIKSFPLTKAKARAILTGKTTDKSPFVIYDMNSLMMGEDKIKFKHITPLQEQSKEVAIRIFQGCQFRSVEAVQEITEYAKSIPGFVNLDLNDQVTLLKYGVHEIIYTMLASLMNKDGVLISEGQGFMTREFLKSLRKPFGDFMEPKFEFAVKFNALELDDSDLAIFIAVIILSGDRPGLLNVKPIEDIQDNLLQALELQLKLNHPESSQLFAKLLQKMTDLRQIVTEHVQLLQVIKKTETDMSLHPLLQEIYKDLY
UniProt Q9Y2H1: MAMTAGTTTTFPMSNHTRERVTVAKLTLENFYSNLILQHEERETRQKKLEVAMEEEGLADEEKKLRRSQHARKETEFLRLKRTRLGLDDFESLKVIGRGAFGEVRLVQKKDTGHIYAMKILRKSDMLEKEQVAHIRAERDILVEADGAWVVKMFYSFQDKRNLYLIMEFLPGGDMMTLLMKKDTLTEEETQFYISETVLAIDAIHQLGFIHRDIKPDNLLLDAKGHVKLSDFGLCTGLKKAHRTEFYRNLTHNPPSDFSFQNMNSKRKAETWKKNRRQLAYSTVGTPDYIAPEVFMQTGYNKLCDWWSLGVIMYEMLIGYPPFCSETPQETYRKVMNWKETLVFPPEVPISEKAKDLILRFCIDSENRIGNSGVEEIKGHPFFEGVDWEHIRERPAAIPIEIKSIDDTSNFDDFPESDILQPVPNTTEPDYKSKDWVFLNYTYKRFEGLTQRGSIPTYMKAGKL
UniProt Q15208: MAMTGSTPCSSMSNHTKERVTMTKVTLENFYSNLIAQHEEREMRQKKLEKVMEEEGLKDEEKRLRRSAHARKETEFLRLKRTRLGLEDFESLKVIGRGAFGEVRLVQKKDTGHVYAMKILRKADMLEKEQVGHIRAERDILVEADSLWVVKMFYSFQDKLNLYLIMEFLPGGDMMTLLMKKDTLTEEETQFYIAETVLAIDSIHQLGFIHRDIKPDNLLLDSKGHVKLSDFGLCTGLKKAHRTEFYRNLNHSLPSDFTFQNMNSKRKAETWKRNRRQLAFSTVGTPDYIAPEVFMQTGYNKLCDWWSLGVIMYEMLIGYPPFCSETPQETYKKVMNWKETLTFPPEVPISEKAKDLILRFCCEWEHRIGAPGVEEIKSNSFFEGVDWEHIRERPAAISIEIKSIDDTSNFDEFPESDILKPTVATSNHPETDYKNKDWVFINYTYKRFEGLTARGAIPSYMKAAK

| binding | Substance |
| --- | --- |
| binds | STK38-Like (STK38L), endogenous in human preadipocytes (from UniProt Q9Y2H1 1-464) |
| binds | serine/threonine kinase 38 (STK38), endogenous in human preadipocytes (from UniProt Q15208 1-465) |
